This note sets out measurements from paper PMC6702725.

No constants are given. Whether binding was seen depends on the method and setting. Binding seen in cells or lysates may run through a third protein. Binding calls can cover weak binding; strength is not graded here. Sequences can lack the tags named with a protein.

For experiment [1], the target named is T1, FLAG-tagged phosphatidylinositol-5-phosphate 4-kinase type-2 gamma (PIP4KIIγ) (human) (UniProt Q8TBX8).
T1 sequence: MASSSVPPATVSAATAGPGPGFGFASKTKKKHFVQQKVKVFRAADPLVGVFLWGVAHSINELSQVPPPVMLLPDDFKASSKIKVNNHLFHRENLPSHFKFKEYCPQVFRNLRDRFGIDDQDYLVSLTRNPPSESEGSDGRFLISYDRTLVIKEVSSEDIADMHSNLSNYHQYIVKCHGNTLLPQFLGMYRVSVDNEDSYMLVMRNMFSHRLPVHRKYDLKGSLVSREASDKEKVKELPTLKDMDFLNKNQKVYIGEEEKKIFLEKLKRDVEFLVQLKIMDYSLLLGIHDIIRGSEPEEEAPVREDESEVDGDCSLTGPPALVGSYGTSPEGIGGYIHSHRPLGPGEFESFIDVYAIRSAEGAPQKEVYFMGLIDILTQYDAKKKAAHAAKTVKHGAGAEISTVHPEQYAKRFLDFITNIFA
The experiment can be described thus: co-IP; CGL2 cells stably expressing FLAG-PIP4KIIγ (or empty vector Neo) lysed in RIPA buffer 30 min on ice; IP with anti-FLAG, or with anti-α-tubulin (mouse IgG as control); immunoblot. On the technique in general: A western blot detects proteins with antibodies after separation by electrophoresis.

In experiment [2] the target is α-tubulin (human (endogenous in CGL2)). Described as above.

Regarding α-tubulin (human (endogenous in CGL2)), the binding result in experiment [1] is “binds”.

B1: FLAG-tagged phosphatidylinositol-5-phosphate 4-kinase type-2 gamma (PIP4KIIγ) (enzyme, UniProt Q8TBX8-1 1-421)
chain: T1 sequence
In the case of B1, in experiment [2], the binding entry is reported as “binds”.
